Experimental data taken from patent publication US20250019451A1.
No constants are given. Whether binding was seen depends on the method and setting. Binding can be weak; no strength is given.

Assays:
[1] = molecular target: human CCR8 with extracellular domain 3 (ECL3) from human CCR4 (human); assay: flow cytometry on ExpiHEK293 cells expressing the CCR8/CCR4 chimera, 50 nM antibody
[2] = molecular target: human CCR8 with extracellular domain 2 (ECL2) from human CCR4 (human); assay: as above

| Binder | binding [1] | binding [2] |
| --- | --- | --- |
| HFB11-2 (antibody, human IgG1, V domains shown) VH: EVQLVESGGGLVQPKGSLKLSCAASGFSFNTYAMNWVRQAPGKGLEWVARIRSKSNNYATYYADSVKDRFTISRDDSERMLYLQMNNLKTEDTAMYYCVRGGSYYSNHYFDYWGQGTTLTVSS VL: DIVMTQAAPSVPVTPGESVSISCRSSKSLLHSNGNTYLYWFLQRPGQSPQLLIYQMSNLASGVPDRFSGSGSGTAFTLRISRVEAEDVGVYYCMQHLEYPFTFGAGTKLELK | binds | binds |
| HFB11-3 (antibody, human IgG1, V domains shown) VH: EVQLVESGGGLVQPQGSLKLSCAASGFSFNTYAMNWVRQAPGKGLQWVARIRSKSNNYATYYADSVKDRFTISRDDSESMLYLQMNNLKTEDAAMYYCVRGKDANYFYAMDYWGQGTSVTVSS VL: DIVMTQAAPSVPVTPGESVSISCRSSKSLLHSNGNTYLYWFLQRPGQSPQLLIYRMSNLASGVPDRFSGSGSGTAFTLRISRVEAEDVGVYYCMQHLEYPFTFGAGTKLELK | binds | binds |
| HFB11-5 (antibody, human IgG1, V domains shown) VH: EVQLVESGGGLVQPRGSLKLSCTASGFSFNAYAMNWVRQAPGKGLEWVARIRTKSNNYATYYADSVKDRFTISRDDSESMLYLQMKNLKTEDTAMYYCVRGGYGNGGYYFDYWGQGTTLTVSS VL: DIVMTQAAPSVTVTPGESASISCRSSKSLLHRNGNSYLYWFLQRPGQSPQLLIYRISNLASGVPDRFSGSGSGTAFTLRISRVEAEDVGVYYCMQHLEYPFTFGSGTKLEIK | binds | binds |
| HFB11-8 (antibody, human IgG1, V domains shown) VH: EVQLVETGGGLVQPKGSLKLSCAASGFRFNTNAMNWVRQAPGKGLEWVARIRSKSNNYATHYVDSVKDRFTVSRDDSQSMLYLQMNNLKAEDTAMYYCVRGSDNNYYYAMDYWGQGTSVTVSS VL: DIVMTQAAPSVPVTPGESVSISCRSSKSLLHSNGNTYLYWFLQRPGQSPQLLIYRMSNLASGVPDRFSGSGSGTSFTLRISRVEVEDVGVYYCMQHLEYPFTFGSGTKLEIK | binds | binds |

Second part, the binder after the results:

| binding [1] | binding [2] | Binder |
| --- | --- | --- |
| binds | binds | HFB11-10 (antibody, V domains shown) VH: EVQLVETGGGLVQPKGSLKLSCAASGFRFNTNAMNWVRQAPGKDLEWVARIRSKSNNYATYYADSVKDRFTISRDDSQSMLYLQMNNVKTEDTAMYYCVRGSDNNYYYAMDYWGQGTSVTVSS VL: DIVMTQAAPSVPVTPGESVSISCRSSKSLLHSNGNTYLYWFLQRPGQSPQLLIYRMSNLASGVPDRFSGSGSGTAFTLRISRVEAEDVGVYYCMQHLEYPFTFGSGTKLEIK |
| binds | binds | HFB11-19 (antibody, human IgG1, V domains shown) VH: QVQLQQSGAELVKPGASVKLSCKASGYTFTDYIIHWVKQRSGQGLEWIGWFSPRNNYVKYNERFTDKATLTADKSSNTVYMELSSLTSEDSAVYFCSRHGRNSIGFAYWGQGTLVTVSA VL: DIVMTQAAPSVPVTPGESVSISCRSSKSLLNSNGNTYLYWFLQRPGQSPQLLIYRMSNLASGVPDRFSGSGSGTAFTLRISRVEAEDVGVYYCMQHLEYPYTFGGGTKLEIK |
| binds | binds | HFB11-21 (antibody, human IgG1, V domains shown) VH: QVQLQQPGAELVKPGASVKLSCKASGYTFISYWMHWVKQRPGRGLEWIGRIDPNSGKTKYNEKFKTKATLTVDKSSSTAYMHLNSLTSDDSAVYYCAREGWGDYWGQGTTLTVSS VL: DIVLTQSPASLAVSLGQRATISCRASESVDNYGISFMHWYQQKPGQPPRLLIYRASNLASGIPARFSGSGSSTDFTLTINPVETDDIATYYCQQSNKDPRTFGGGTKLEIK |
